In the test the target is KDR (full-length receptor) expressed on transiently transfected 293H cells (human) (UniProt P35968). Description: competition with 125I-VEGF at 10, 0.3 and 0.03 µM (FIG. 14).

The chains behind the UniProt entries cited, without tags or fusion partners. Residues count along the entry.
UniProt P35968, residues 20-1356: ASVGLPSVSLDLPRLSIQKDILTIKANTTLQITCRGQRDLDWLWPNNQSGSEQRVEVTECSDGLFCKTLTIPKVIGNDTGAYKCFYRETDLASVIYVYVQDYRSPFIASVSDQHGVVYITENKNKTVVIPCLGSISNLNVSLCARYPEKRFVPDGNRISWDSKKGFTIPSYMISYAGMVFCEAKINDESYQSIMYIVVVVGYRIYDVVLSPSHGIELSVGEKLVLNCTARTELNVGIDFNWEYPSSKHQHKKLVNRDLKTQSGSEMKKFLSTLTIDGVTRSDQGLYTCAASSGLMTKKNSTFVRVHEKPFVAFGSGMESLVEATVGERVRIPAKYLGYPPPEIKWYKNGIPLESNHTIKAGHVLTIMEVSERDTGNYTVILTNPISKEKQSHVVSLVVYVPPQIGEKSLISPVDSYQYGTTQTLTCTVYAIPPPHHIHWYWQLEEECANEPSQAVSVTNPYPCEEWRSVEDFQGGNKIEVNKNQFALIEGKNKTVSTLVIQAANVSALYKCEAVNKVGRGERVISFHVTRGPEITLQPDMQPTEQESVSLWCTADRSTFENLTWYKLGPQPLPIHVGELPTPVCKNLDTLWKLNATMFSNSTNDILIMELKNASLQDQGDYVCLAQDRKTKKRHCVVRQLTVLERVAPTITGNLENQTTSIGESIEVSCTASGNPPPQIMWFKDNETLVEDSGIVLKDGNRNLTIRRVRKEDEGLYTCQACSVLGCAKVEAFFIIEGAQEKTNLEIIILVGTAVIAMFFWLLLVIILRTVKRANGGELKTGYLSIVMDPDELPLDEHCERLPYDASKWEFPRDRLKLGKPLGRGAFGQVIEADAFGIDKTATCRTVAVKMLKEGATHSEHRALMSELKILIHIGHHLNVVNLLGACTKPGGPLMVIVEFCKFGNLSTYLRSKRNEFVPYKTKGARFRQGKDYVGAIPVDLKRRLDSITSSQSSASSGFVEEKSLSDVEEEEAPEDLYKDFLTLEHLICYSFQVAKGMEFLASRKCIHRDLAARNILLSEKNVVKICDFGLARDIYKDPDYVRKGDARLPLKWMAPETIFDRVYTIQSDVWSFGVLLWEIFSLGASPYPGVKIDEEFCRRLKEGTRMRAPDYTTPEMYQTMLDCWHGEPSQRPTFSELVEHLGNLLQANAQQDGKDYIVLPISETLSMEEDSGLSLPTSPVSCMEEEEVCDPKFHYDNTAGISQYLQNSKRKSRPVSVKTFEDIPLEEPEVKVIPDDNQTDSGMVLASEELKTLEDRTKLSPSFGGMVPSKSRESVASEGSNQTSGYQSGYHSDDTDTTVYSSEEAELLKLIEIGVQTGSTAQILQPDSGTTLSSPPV

These are yes or no findings as the source states them, for the method shown. Some results given as binding are weak or reduced against the parent protein; the word gives no strength.

As for AQDWYYDEILSMADQLRHAFLSGG (Ac-; -NH2) [P13-D], the binding entry is listed as “binds”.

(Values after patent EP1482987B1 (Bracco Suisse SA, dated 2014).)
